Tested on: plasma UR
Test: Plasma UR concentration versus plasma Compound 1 concentration after continuous sc osmotic-pump infusion
Type: in vivo
Details: FIG. 1; continuous sc infusion 667, 833 or 3000 mg/kg/day, BDF-1 male mice
Method: For this reason continuous infusion of compound I (authentic TK-112690, Batch TCY90108) to BDF-1 ♂ mice were administered via a sc implanted osmotic pumps and the UR plasma concentration measured, ^46 Deng Y, Wang Z V, Gordillo R, An Y, Zhang C, Liang Q, Yoshino J, Cautivo K M, De Brabander J, Elrnquist J K, Horton J D, Hill J A, Klein S, Scherer P E. An adipo-biliary-uridine axis that regulates energy homeostasis. Science 2017, 17; 355(6330)
Solutions of Compound I were prepared at a concentration of 500 mg/mL in sterile PBS. Osmotic pumps (ALZET® micro-osmotic pump 2001 D and 1003D, Alza Co) were loaded with 200 μL (2001D osmotic pump) and/or 100 μL (1003D osmotic pump) of TK-112690 solution.
BDF-1 male mice (n=6) were treated with a constant-rate infusion of 667, 833 or 3000 mg/kg/day doses of Compound I delivered via subcutaneously implanted osmotic pumps. Animals were anesthetized with 100 mg/kg ketamine prior to pump implantation. Surgical scissors were used to make an approximately 1 cm incision on the dorsal surface near the shoulder blade of animals. A hemostat was used to carve out a subcutaneous tunnel toward the anterior end of animal. Osmotic pumps were placed inside the subcutaneous tunnel. […]
A solid-phase extraction (SPE) of analytes (UR, Compound I and 5-FU) from plasma was conducted before HPLC analysis. […] Samples were transferred into fresh HPLC vials and analyzed. […]

In the case of Cc1cn2c(nc1=O)O[C@H]1[C@H](O)[C@@H](CO)O[C@H]12 [Compound 1], the “slope of regression line, plasma UR concentration versus plasma Compound 1 concentration” value is reported as 0.010.
